# PubChem BioAssay AID652259 – Drosophila RNAi Screening Center – 2013
# Aim: 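Knock-downs that push a Wingless-driven reporter up or down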 (primary screen)
# Cell system: Drosophila clone 8 imaginal disc epithelial cells
# Reagents: long dsRNA against Drosophila genes
# Challenge: pathway stimulated by co-transfected Wingless expression plasmid
# Measurement: 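Dual luciferase reads per well after Wingless plasmid stimulation: reporter firefly light and Renilla control light; activity is firefly divided by Renilla, a ratio not deposited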
# Reading the numbers: firefly reporter light: higher = more Wg reporter light, before normalisation; Renilla control light: higher = more transfected or surviving cells
# Active means: 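a knock-down is a candidate when at least two out of four statistical tests show it departing from its plate mean; one test alone signals a weak candidate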
# Meaning of the calls: active = candidate regulator (raises or lowers reporter); inactive = not a candidate
# The deposit covers about 22,000 reagents; this is an unselected part of those with a known target gene and a result. Over the whole deposit, 233 (1.1%) are marked active. 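Light values are raw, unnormalised plate reads; the ratio scores behind the reporter calls were not deposited.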 The numbers tell different reagents against one gene apart. Names joined by + are all predicted targets of the reagent. No sequences are given here. Not stated in the record: the amount of reagent, the time to read-out, the dose of the treatment.
Target gene,reagent no.,"reporter change call, replicate 1","firefly reporter light, replicate 1","firefly reporter light, replicate 2","Renilla control light, replicate 1","Renilla control light, replicate 2",Call
Graf,1,,1940,4305,800,1617,inactive
CG1888,1,,3131,8374,708,3688,inactive
Acp1,1,,3939,4784,1234,2556,inactive
CG14610 + asRNA:CR42738,1,,15100,,2765,,inactive
CG42588,1,,6940,,3275,,inactive
CG42588,2,,8.08e5,8.28e5,3.56e5,4.34e5,inactive
Hel89B,1,,4240,7325,1376,2707,inactive
Hel89B,2,,8.67e5,9.29e5,1.56e5,1.50e5,inactive
Ras85D,1,,18737,,3187,,inactive
Mulk,1,,6592,,2181,,inactive
Ppat-Dpck,1,,908,6504,960,2551,inactive
CG43996 + CG43997,1,,13488,,8474,,inactive
CG43996 + CG43997,2,,20712,,7709,,inactive
Gpo2,1,,3256,5768,1280,2969,inactive
CG3123,1,,2160,6176,952,2150,inactive
Srg2,1,,2044,,1079,,inactive
CG43057,1,,22825,,8757,,inactive
dj,1,,13814,,1796,,inactive
CG33128,1,,3616,8608,1623,3994,inactive
E(Pc),1,Wg reporter activity raised,27911,,12868,,inactive
E(Pc),2,Wg reporter activity raised,20925,,1936,,active
CG13983,1,,1851,8360,624,2148,inactive
Best2,1,,1954,7613,853,3236,inactive
NtR,1,,3765,9349,714,3272,inactive
Or65b,1,,3281,,364,,inactive
Cpr78Cc,1,,15034,,4992,,inactive
GABA-B-R2,1,,4541,10564,1586,3440,inactive
CG7924,1,,3654,,1536,,inactive
Nnf1a,1,,3867,,2578,,inactive
CG9519,1,,1943,5593,1035,2592,inactive
Pif1A + Pif1B,1,,14490,,4562,,inactive
Pif1A + Pif1B,2,,7592,,1713,,inactive
Pif1A + Pif1B,3,,20519,,6177,,inactive
CG5070,1,,18610,,9957,,inactive
Ccp84Ag,1,,20801,,3995,,inactive
Ccp84Ag,2,,5.78e5,5.68e5,1.84e5,2.08e5,inactive
Mal-A5,1,,7609,,3264,,inactive
Ndc1,1,,2825,4338,1234,1746,inactive
Vha16-2,1,,6746,,3859,,inactive
CG10474,1,,4423,,1693,,inactive
CG15140,1,,3424,8949,1626,4112,inactive
VAChT + ChAT,1,,2986,,1712,,inactive
CG13252,1,,14434,,5604,,inactive
CG16758,1,,1452,,829,,inactive
CG16758,2,,17523,,4144,,inactive
Ufsp1,1,,15925,,8555,,inactive
CG9903,1,,16978,,9153,,inactive
Cyp9f2,1,,9913,,3745,,inactive
CG34188,1,,17379,,14436,,inactive
CG30287,1,,12998,,7248,,inactive
Ilp7,1,,23642,,14880,,inactive
santa-maria,1,,15078,,6825,,inactive
santa-maria,2,,10240,,4343,,inactive
CG42726 + CG42727,1,,5258,,1735,,inactive
Bacc,1,,3184,6050,1256,2054,inactive
CG5776,1,,8871,,3536,,inactive
swm,1,,17749,,6072,,inactive
swm,2,,3.96e5,4.08e5,1.26e5,1.33e5,inactive

Part of the list above in another layout.
CG1888
- firefly reporter light, replicate 1: 3131
- firefly reporter light, replicate 2: 8374
- Renilla control light, replicate 1: 708
- Renilla control light, replicate 2: 3688
- Call: inactive

Acp1
- firefly reporter light, replicate 1: 3939
- firefly reporter light, replicate 2: 4784
- Renilla control light, replicate 1: 1234
- Renilla control light, replicate 2: 2556
- Call: inactive

CG14610 + asRNA:CR42738
- firefly reporter light, replicate 1: 15100
- Renilla control light, replicate 1: 2765
- Call: inactive

CG42588 #1
- firefly reporter light, replicate 1: 6940
- Renilla control light, replicate 1: 3275
- Call: inactive

CG42588 #2
- firefly reporter light, replicate 1: 8.08e5
- firefly reporter light, replicate 2: 8.28e5
- Renilla control light, replicate 1: 3.56e5
- Renilla control light, replicate 2: 4.34e5
- Call: inactive

Hel89B #1
- firefly reporter light, replicate 1: 4240
- firefly reporter light, replicate 2: 7325
- Renilla control light, replicate 1: 1376
- Renilla control light, replicate 2: 2707
- Call: inactive

Hel89B #2
- firefly reporter light, replicate 1: 8.67e5
- firefly reporter light, replicate 2: 9.29e5
- Renilla control light, replicate 1: 1.56e5
- Renilla control light, replicate 2: 1.50e5
- Call: inactive

Ras85D
- firefly reporter light, replicate 1: 18737
- Renilla control light, replicate 1: 3187
- Call: inactive

Mulk
- firefly reporter light, replicate 1: 6592
- Renilla control light, replicate 1: 2181
- Call: inactive

Ppat-Dpck
- firefly reporter light, replicate 1: 908
- firefly reporter light, replicate 2: 6504
- Renilla control light, replicate 1: 960
- Renilla control light, replicate 2: 2551
- Call: inactive

CG43996 + CG43997 #1
- firefly reporter light, replicate 1: 13488
- Renilla control light, replicate 1: 8474
- Call: inactive

CG43996 + CG43997 #2
- firefly reporter light, replicate 1: 20712
- Renilla control light, replicate 1: 7709
- Call: inactive

Gpo2
- firefly reporter light, replicate 1: 3256
- firefly reporter light, replicate 2: 5768
- Renilla control light, replicate 1: 1280
- Renilla control light, replicate 2: 2969
- Call: inactive

CG3123
- firefly reporter light, replicate 1: 2160
- firefly reporter light, replicate 2: 6176
- Renilla control light, replicate 1: 952
- Renilla control light, replicate 2: 2150
- Call: inactive

Srg2
- firefly reporter light, replicate 1: 2044
- Renilla control light, replicate 1: 1079
- Call: inactive

Continued.
Target gene,reagent no.,"reporter change call, replicate 1","firefly reporter light, replicate 1","firefly reporter light, replicate 2","Renilla control light, replicate 1","Renilla control light, replicate 2",Call
CG4186,1,,14672,,4869,,inactive
Vang,1,,4299,12066,1318,4321,inactive
Ugt36F1,1,,2631,6707,530,2596,inactive
CG17233,1,,7863,,2074,,inactive
CG3909,1,,11056,,2161,,inactive
Rtel1,1,,17867,,8560,,inactive
CG13171,1,,5841,,2694,,inactive
CG16984,1,,4996,,2665,,inactive
CG4301,1,,12052,,5771,,inactive
sona,1,,2187,6464,658,1911,inactive
sona,2,,3048,5968,570,2240,inactive
sona,3,,2439,6144,699,2347,inactive
sbr,1,,29940,,7389,,inactive
sbr,2,,21005,,5852,,inactive
roh,1,,20924,,8919,,inactive
nSMase,1,,7547,,3141,,inactive
CG10927,1,,19434,,5185,,inactive
GstD2,1,,16736,,4586,,inactive
Tis11,1,,2179,7936,454,1408,inactive
CG14958,1,,6688,,2253,,inactive
RacGAP84C,1,,13821,,3350,,inactive
CG34028,1,,3430,,1256,,inactive
CG42580,1,,3926,,1451,,inactive
Fer1,1,,22737,,4086,,inactive
Fer1,2,,15363,,2935,,inactive
MICAL-like,1,,4816,,1671,,inactive
CG43295,1,,3244,,1271,,inactive
CG13455,1,,6672,,2349,,inactive
Obp85a,1,,8209,,3143,,inactive
CG11112,1,,2416,5355,594,1684,inactive
CG14969,1,,5996,,2441,,inactive
Or42a,1,,1712,6140,644,2277,inactive
Bub3,1,,3673,6756,1360,2113,inactive
a,1,,2897,5273,262,584,inactive
a,2,,1965,6026,441,2304,inactive
